PubChem BioAssay AID1047 (SRMLSC, 2008)
Among all 1,500 compounds or so, about 1,400 (93%) were called active. How the calls were made is not given here. The set was probably picked from earlier hits. The entries are a selection whose mix differs from that of the whole data set. Entries with a potency or affinity are not part of this list.

Assay: viability of PTEN-deleted HCT116 cells – cell-based, HCT116 PTEN knockout, dose response (AID 1047)
Details: CellTiter-Glo, 60 h; at 30 µM (top of the series)
With `CC(C)N1C(=O)/C(=C/C=C/c2ccco2)C(=O)N(Cc2ccco2)C1=O` the viability was inactive: 77.2%.
